Measured values published in patent US8828928B2, “Amphiphilic peptides and peptide particles” (President and Fellows of Harvard College, priority 2011, dated 2014).
Results are given in words; binding and its absence hold for the method and conditions named. Some binding calls cover weakened binding; strength is not graded here.

The chains behind the UniProt entries cited, without tags or fusion partners. Residues count along the entry.
UniProt Q07891: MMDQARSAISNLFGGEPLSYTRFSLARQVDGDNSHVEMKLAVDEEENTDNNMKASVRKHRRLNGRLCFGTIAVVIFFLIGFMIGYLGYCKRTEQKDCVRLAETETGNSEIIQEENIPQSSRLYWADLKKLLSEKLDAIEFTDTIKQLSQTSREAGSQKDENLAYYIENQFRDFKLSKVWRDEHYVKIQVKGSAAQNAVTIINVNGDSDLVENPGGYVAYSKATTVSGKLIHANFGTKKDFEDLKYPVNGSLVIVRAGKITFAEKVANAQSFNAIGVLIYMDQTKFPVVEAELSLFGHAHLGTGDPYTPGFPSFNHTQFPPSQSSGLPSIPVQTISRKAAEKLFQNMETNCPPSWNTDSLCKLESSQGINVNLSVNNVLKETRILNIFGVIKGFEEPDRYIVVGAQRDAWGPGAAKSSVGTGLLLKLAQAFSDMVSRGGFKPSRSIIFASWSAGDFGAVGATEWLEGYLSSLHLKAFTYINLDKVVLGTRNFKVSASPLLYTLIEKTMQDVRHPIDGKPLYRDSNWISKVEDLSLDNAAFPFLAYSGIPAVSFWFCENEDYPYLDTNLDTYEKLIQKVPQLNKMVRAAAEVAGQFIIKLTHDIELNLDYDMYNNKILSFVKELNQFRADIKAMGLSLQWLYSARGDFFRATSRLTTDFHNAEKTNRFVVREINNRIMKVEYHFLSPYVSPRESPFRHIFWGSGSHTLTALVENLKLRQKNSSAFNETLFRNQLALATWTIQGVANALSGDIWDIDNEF
UniProt P02787, residues 20-698: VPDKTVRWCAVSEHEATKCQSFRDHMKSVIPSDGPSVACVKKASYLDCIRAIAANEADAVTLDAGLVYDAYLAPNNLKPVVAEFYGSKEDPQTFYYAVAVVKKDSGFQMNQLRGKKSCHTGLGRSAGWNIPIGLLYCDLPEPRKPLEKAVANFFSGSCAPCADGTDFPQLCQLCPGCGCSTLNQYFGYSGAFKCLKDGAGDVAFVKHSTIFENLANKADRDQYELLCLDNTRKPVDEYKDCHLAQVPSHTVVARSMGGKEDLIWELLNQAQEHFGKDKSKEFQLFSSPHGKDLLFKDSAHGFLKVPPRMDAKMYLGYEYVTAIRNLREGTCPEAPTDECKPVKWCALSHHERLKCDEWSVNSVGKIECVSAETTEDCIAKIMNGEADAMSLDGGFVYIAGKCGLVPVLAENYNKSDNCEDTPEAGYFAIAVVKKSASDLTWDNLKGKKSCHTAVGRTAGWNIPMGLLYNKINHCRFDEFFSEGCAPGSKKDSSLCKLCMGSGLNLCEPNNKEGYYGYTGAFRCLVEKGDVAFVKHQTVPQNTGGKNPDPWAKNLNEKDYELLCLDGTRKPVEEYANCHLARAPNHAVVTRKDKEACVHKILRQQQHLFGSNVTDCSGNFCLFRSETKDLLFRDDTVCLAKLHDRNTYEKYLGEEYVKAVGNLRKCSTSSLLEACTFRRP

Legend:
[1] = biological target: transferrin receptor (TfR) on Chinese hamster ovary (CHO) cells (Chinese hamster (CHO cells)) (UniProt Q07891); assay: fluorescence microscopy of CHO cells
[2] = biological target: transferrin receptor (TfR) on Chinese hamster ovary (CHO) cells (Chinese hamster (CHO cells)) (UniProt Q07891); assay: summary of the cell experiments of Example 4
[3] = biological target: transferrin receptor (TfR) on Chinese hamster ovary (CHO) cells (Chinese hamster (CHO cells)) (UniProt Q07891); assay: fluorescence microscopy of CHO cells incubated 1 h with the particles (figure legend)
[4] = biological target: transferrin receptor (TfR) on Chinese hamster ovary (CHO) cells (Chinese hamster (CHO cells)) (UniProt Q07891); assay: fluorescence microscopy, PNP counts per cell on CHO and TRVb cells with or without Tfn competition

Measured: binding

Tfn-AF568 (transferrin labeled with Alexa Fluor 568), as the corona of CD3ac peptide nanoparticles PNPFlutax-2^Tfn-AF568 (from UniProt P02787 20-698) (ligand)
binds: all assays above
